Reference: PubChem BioAssay AID504786 (Drosophila RNAi Screening Center, 2011)

Aim: 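Fly genes required for HIF-dependent transcription when hypoxia is mimicked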 (primary screen)
Cells: Drosophila S2 cells with a stable HIF luciferase reporter
Reagents: long dsRNA against Drosophila genes, about 0.2 µg dsRNA per well of a 384-well plate
Time to read-out: three days of knock-down, then 20 h of DFO before reading
Conditions: desferrioxamine (DFO) at 100 µM, an iron chelator that mimics hypoxia, for 20 h
Detection: 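HIF reporter luminescence in cells given 100 µM DFO for 20 h, using the mouse ldh-a hypoxia-response element, scored as per-plate z-scores; higher means greater loss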
Direction: z-score: higher = stronger loss of HIF reporter signal
The deposit covers about 21,000 reagents; this is a random part of those with a known target gene and a result. 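Primary screen; positive scores mean lost reporter signal, so the sign may be inverted from the usual convention.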 Reagents against one gene are numbered here. Further read-outs or replicates are left out here.

z-score, replicate 1, by gene and reagent
CG45263: #1 -0.3; #2 -0.3; #3 -0.4; #4 -0.6
CG13185: #1 0.1
C15: #1 0; #2 0.3
dpr6 (defective proboscis extension response 6): #1 0.9; #2 -0.2; #3 -0.6
Gapdh2 (Glyceraldehyde 3 phosphate dehydrogenase 2): #1 -0.6
Cdc27 (Cell division cycle 27): #1 3.6
lsn (larsen): #1 -0.3
CG33061: #1 -0.2
if (inflated): #1 0.1
Pkc98E (Protein C kinase 98E): #1 -0.3
CG14401: #1 -0.2

Targets above whose target name starts with D or d:
z-score, replicate 1, by gene and reagent
dpr6 (defective proboscis extension response 6): #1 0.9; #2 -0.2; #3 -0.6

The results go on:
z-score, replicate 1, by gene and reagent
CG12645: #1 -0.1
CG45002: #1 -0.2
ppk25 (pickpocket 25): #1 -0.4
CG10907: #1 -0.4
CG4835: #1 1.2
CG4641 (retired record): #1 -0.1
CG17154: #1 -0.3
Alg12 (Alg12 alpha-1,6-mannosyltransferase): #1 -0.3
ms(2)34Fe (male sterile (2) 34Fe): #1 0.2
frtz (fritz): #1 0
CG14511: #1 0.2
brwl (brickwall): #1 -0.7; #2 -0.3
Ir76a (Ionotropic receptor 76a): #1 -0.4
CG5860: #1 -0.3
sgg (shaggy): #1 -0.3; #2 -0.2; #3 -0.2
